Source: PubChem BioAssay AID504648 (National Center for Advancing Translational Sciences (NCATS), 2011)
About 610 (0.16%) of roughly 390,000 compounds were called active. This list was built around the results that the source calls inconclusive (neither active nor inactive); the mix of calls is not that of the screen. The call rests on the fitted dose curve; in most records, active means well fitted inhibition curve with a large enough effect; inconclusive means small, poorly fitted or top-dose-only effect, or effect the other way, or another doubt; inactive means no such curve, though single readings can be large or run the other way. Potencies of inconclusive entries are doubtful fits and often do not repeat.
Potency means the concentration at half of the fitted maximal effect.

Assay: Nrf2 qHTS screen for inhibitors: counterscreen for cytotoxicity
Settings: A549 ARE-Fluc cells, CellTiter-Fluor viability, 18-24 h; series mostly up to 46 µM
Method in brief: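 A549 ARE-Fluc cells in 5% FBS OPTI-MEM, 5000 cells/well, rested 2 h then exposed to compounds in concentration-response for 18-24 h at 37 °C. Viability by CellTiter-Fluor fluorescence (Ex 405/Em 525) after 30 min; luciferase luminescence (BugLite, 15 min, RT) read afterwards.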
In the case of `CCN(CC)CCOC(=O)c1ccc(NC(=O)c2cn(-c3ccccc3)nc2-c2cccs2)cc1`, the Potency is reported as inconclusive: 20.6 µM [falling, single point].
With `Cc1ccc(-n2ncc(C(=O)NCCc3ccsc3)c2C2CCN(C(=O)OC(C)(C)C)CC2)cc1C` the Potency was inconclusive: 29.1 µM [falling, partial curve, poor fit].
For `CC(C)N1CCN(C2CSCCSC2)CC1CCO` (centres undefined), the Potency was “inactive”.
With `CCO[C@@H]1OC(C(=O)N2CCN(Cc3ccc4c(c3)OCO4)CC2)=C[C@H](c2ccc(C(F)(F)F)cc2)[C@H]1CCCO` the Potency was inconclusive: 18.4 µM [falling, partial curve, poor fit].
For `COC(=O)C(=CC(=CN(C)C)C=C(C(=O)OC)C(=O)OC)C(=O)OC`, the Potency was inconclusive: 20.6 µM [falling, partial curve, poor fit].
With `O=C(c1ccc(OCCN2CCCCC2)cc1)c1c(-c2ccc(O)cc2)sc2cc(O)ccc12` the Potency was inconclusive: 11.6 µM [falling, partial curve].
For `COc1ccc(OC)c(NC(=O)c2cnc(Nc3ccccc3OC)c3ccccc23)c1`, the Potency was “inactive”.
For `CSc1nsc2nc(=O)c(/C=C3\C(C)=Nc4ccc(C)cc43)c(N)n12`, the Potency was inconclusive: 25.9 µM [falling, partial curve, poor fit].
With `COC(=O)c1cc(=O)cc(C(=O)OC)o1` the Potency was inconclusive: 32.6 µM [falling, partial curve, poor fit].
With `ClC(Cl)(Cl)c1nc2ccccc2n2nncc12` the Potency was inconclusive: 16.4 µM [falling, single point].
With `O=C1CCCC2=C1C(c1ccc(O)cc1)c1c(ccc3ccccc13)N2` (centres undefined) the Potency was “inactive”.
For `O=C(Nc1ccc(Cl)cc1)N1CCN(c2ccc3nnc(-c4ccc(F)cc4)n3n2)CC1`, the Potency was inconclusive: 18.4 µM [falling, single point].
In the case of `O=C1OCCN1C(=O)[C@H]1[C@H](c2ccccc2)C(c2ccccc2)=NN1c1ccccc1`, the Potency is reported as inconclusive: 23.1 µM [activator, partial curve, poor fit].
For `CCOC(=O)c1sc2nc(-c3ccco3)c3c(c2c1N)CC(C)(C)OC3`, the Potency was inconclusive: 18.4 µM [activator, single point].
For `C=CCN1C(=O)C2(/C(=C(\O)c3ccc4c(c3)OCCO4)C(=O)C(=O)N2CCCOC)c2ccccc21` (centres undefined), the Potency was inconclusive: 6.51 µM [falling, partial curve, poor fit].
With `N#Cc1c(-c2ccc(Cl)cc2)ccnc1N1CCOCC1` the Potency was “inactive”.
For `COc1ccc2c(c1OC)C(=O)N(c1cccc(/C=C/C(=O)O)c1)C2`, the Potency was “inactive”.
In the case of `O=C(CNC(=O)c1ccccc1)N/N=C/c1ccc([N+](=O)[O-])o1`, the Potency is reported as inconclusive: 14.6 µM [falling, partial curve, poor fit].
With `O=C(O)CNc1nc(-c2ccccc2)nc2c1oc1ccccc12` the Potency was “inactive”.
For `Cc1ccc(C(=O)NNC(=S)NC(=O)c2ccc(Cl)cc2)cc1`, the Potency was inconclusive: 29.1 µM [falling, single point].
With `COc1ccc(C2C3C=CCC(c4ccccc4)C3C(=O)N2Cc2ccccc2)cc1Cl` (centres undefined) the Potency was inconclusive: 25.9 µM [falling, single point].
With `COc1ccc(NC(=O)/C(C#N)=C/C=C/c2ccco2)cc1` the Potency was inconclusive: 20.6 µM [falling, single point].
With `CN(Cc1cccnc1)Cc1cn(Cc2ccccc2)nc1-c1ccc2c(c1)OCO2` the Potency was “inactive”.
In the case of `COc1cc(C(=O)Oc2c(Sc3ccc(C)cc3)c(C)nn2-c2ccccc2)cc(OC)c1OC`, the Potency is reported as “inactive”.
With `Cc1ccn2c(Nc3ccc4c(c3)OCCO4)c(-c3ccc(Cl)s3)nc2c1` the Potency was “inactive”.
For `COc1ccc(CNC(=O)CN2C(=O)C(c3ccccc3)Oc3cccnc32)cc1` (centres undefined), the Potency was inconclusive: 18.4 µM [falling, single point].
For `CCOc1ccc(CCNC(=O)C2CCCN(c3ncnc4c3nc3n4CCCCC3)C2)cc1` (centres undefined), the Potency was “inactive”.
With `Cc1ccc2c(c1)cc(C(=O)Nc1ccc(F)cc1F)n2C` the Potency was “inactive”.
For `O=C(NCCc1ccc(Cl)cc1)c1ccc(CS(=O)Cc2cccc(Cl)c2)o1` (centres undefined), the Potency was inconclusive: 20.6 µM [falling, partial curve, poor fit].
In the case of `O=C(CSc1nc2ccccc2[nH]1)Nc1ccc(F)c(F)c1`, the Potency is reported as inconclusive: 6.51 µM [falling, single point].
For `Cc1nc(NC(=O)CN(C)S(=O)(=O)c2ccc(Br)cc2)sc1C`, the Potency was “inactive”.
In the case of `CC(=O)Nc1ccc(/C=N/Nc2nc3ccccc3[nH]2)cc1`, the Potency is reported as “inactive”.
With `COc1ccc2oc(=O)c(C(=O)NCCc3c(C)[nH]c4c(Cl)cccc34)cc2c1` the Potency was “inactive”.
With `N#CCCN1CCN(C(=S)c2ccc(-c3cc(Cl)ccc3Cl)o2)CC1` the Potency was inconclusive: 32.6 µM [falling, partial curve, poor fit].
With `CNc1nc(N)c([N+](=O)[O-])c(Nc2ccccc2OC)n1` the Potency was “inactive”.
For `N=c1c2c(ncn1CCN1CCOCC1)Oc1ccc3ccccc3c1C2c1ccccc1` (centres undefined), the Potency was inconclusive: 16.4 µM [falling, partial curve, poor fit].
In the case of `COc1ccc(OC)c(CNC(=O)CCCn2ccc3cc(S(=O)(=O)N4CCCC4)ccc32)c1`, the Potency is reported as inconclusive: 32.6 µM [falling, partial curve, poor fit].
In the case of `O=C(Nc1ccc2nc3ccccc3nc2c1)c1ccc(Br)cc1`, the Potency is reported as “inactive”.
For `c1ccc(CNc2nc(-c3cccs3)nc3ccccc23)nc1`, the Potency was inconclusive: 0.651 µM [activator, full curve, poor fit].
For `COC(=O)[C@@]1(Cc2ccccc2)[C@H]2C(=O)N(Cc3ccccc3)C(=O)[C@H]2[C@H]2CN=C(SCC3CC3)N21`, the Potency was “inactive”.
With `C[C@@H]1C(c2ccccc2)=NN(c2ccc(Br)cc2)[C@H]1C(=O)N1CCOC1=O` the Potency was “inactive”.
For `CN(Cc1cc(Cl)cc(Cl)c1)CC(C(=O)c1ccccc1)c1ccccc1` (centres undefined), the Potency was “inactive”.
With `Cc1cc(-c2ccc(C(C)C)c(S(=O)(=O)N3CC(=O)Nc4ccccc43)c2)on1` the Potency was inconclusive: 18.4 µM [falling, single point].
In the case of `Cc1[nH]n(-c2ccccc2)c(=O)c1C(c1cccc([N+](=O)[O-])c1O)c1c(C)[nH]n(-c2ccccc2)c1=O`, the Potency is reported as “inactive”.
